Our source for the binding values is patent US20260209348A1.

These are yes or no findings as the source states them, for the method shown. For some assays here: A result given as binding can be weak or reduced; the word gives no strength.

Assay [1] addresses hKringle human/mouse hybrid ROR2. Description: dot blot on nylon membrane, anti-human IgG-HRP.
Assay [2] addresses hCRD human/mouse hybrid ROR2. Description: dot blot on nylon membrane, anti-human IgG-HRP.
Assay [3] addresses hKringle human/mouse hybrid ROR2. The assay is described as follows: dot blot.
Assay [4] addresses hCRD human/mouse hybrid ROR2. The assay is described as follows: dot blot.
Assay [5] deals with hCRD human/mouse hybrid ROR2. The assay is described as follows: dot blot of arrayed recombinant proteins (key on the sheet).
For assay [6], the target named is hKringle human/mouse hybrid ROR2. The assay is described as above.

B1: h6E6-063 (antibody, human IgG1, V domains shown)
VH: EVQLVESGGGLVKPGGSLRLSCAASGFTFSAYGTSWVRQAPGKGLEWVSTISSGGGYTYYAASVKGRFTISRDNAKNSLYLQMNSLRAEDTAVYYCARHPRDFSYAIDYWGQGTTVTVSS
VL: EIVMTQSPATLSVSPGERATLSCRASQDVGHYLAWYQQKPGQAPRLLIYWASTRATGIPARFSGSGSGTEFTLTISSLQSEDFAVYYCQQYNIYPWTFGQGTKVEIK
With B1, the binding entry was “binds” in assay [1]; “no binding” in assay [2]; “binds” in assay [3]; “no binding” in assay [4]; “no binding” in assay [5].

B2: h6E6-107 (antibody, human IgG1, V domains shown)
VH: EVQLVESGGGLVKPGGSLRLSCAASGFTFSTYGASWVRQAPGKGLEWVSTISSGGGYTHYAPSVKGRFTISRDNAKNSLYLQMNSLRAEDTAVYYCARHPRDFSYALDYWGQGTTVTVSS
VL: EIVMTQSPATLSVSPGERATLSCKASQDVGHYVAWYQQKPGQAPRLLIYWASTRATGIPARFSGSGSGTEFTLTISSLQSEDFAVYYCQQYNIYPWTFGQGTKVEIK
Turning to B2, the binding entry in assay [1] is listed as “binds”; in assay [2], “no binding”; in assay [3], “binds”; in assay [4], “no binding”.

B3: h6E6-070 (antibody, human IgG1, V domains shown)
VH: EVQLVESGGGLVKPGGSLRLSCAASGFTFSQYGHSWVRQAPGKGLEWVSTISSGGGYTHYAHSVKGRFTISRDNAKNSLYLQMNSLRAEDTAVYYCARHPRDFSYANDYWGQGTTVTVSS
VL: EIVMTQSPATLSVSPGERATLSCRASQDVGHYLAWYQQKPGQAPRLLIYWASTRATGIPARFSGSGSGTEFTLTISSLQSEDFAVYYCQQYNIYPWTFGQGTKVEIK
B3: the binding result in assay [1] is listed as “binds”; in assay [2], “no binding”; in assay [3] it was “binds”; in assay [4] it was “no binding”; in assay [6], “binds”; in assay [5] it was “no binding”.

B4: h6E6-066 (antibody, human IgG1, V domains shown)
VH: EVQLVESGGGLVKPGGSLRLSCAASGFTFSAYGSSWVRQAPGKGLEWVSTISSGGGYTHYAPSVKGRFTISRDNAKNSLYLQMNSLRAEDTAVYYCARHPRDFSYAHDYWGQGTTVTVSS
VL: EIVMTQSPATLSVSPGERATLSCKASQDVGHYVAWYQQKPGQAPRLLIYWASTRHTGIPARFSGSGSGTEFTLTISSLQSEDFAVYYCQQYNIYPWTFGQGTKVEIK
As for B4, the binding entry in assay [1] is given as “binds”; in assay [2], “no binding”; in assay [3] it was “binds”; in assay [4], “no binding”.

B5: h6E6-056 (antibody, human IgG1, V domains shown)
VH: EVQLVESGGGLVKPGGSLRLSCAASGFTFSKYGTSWVRQAPGKGLEWVSTISSGGGYTHYAPSVKGRFTISRDNAKNSLYLQMNSLRAEDTAVYYCARHPRDFSYAQDYWGQGTTVTVSS
VL: EIVMTQSPATLSVSPGERATLSCRASQDVGHYVAWYQQKPGQAPRLLIYWASTRATGIPARFSGSGSGTEFTLTISSLQSEDFAVYYCQQYNIYPWTFGQGTKVEIK
Consider B5, for which the binding entry in assay [1] was “binds”; in assay [2], “no binding”; in assay [3] it was “binds”; in assay [4] it was “no binding”.

B6: h6E6-058 (antibody, human IgG1, V domains shown)
VH: EVQLVESGGGLVKPGGSLRLSCAASGFTFSVYGLSWVRQAPGKGLEWVSTISSGGGYTQYAPSVKGRFTISRDNAKNSLYLQMNSLRAEDTAVYYCARHPRDFSYAFDYWGQGTTVTVSS
VL: EIVMTQSPATLSVSPGERATLSCKASQDVGHYLAWYQQKPGQAPRLLIYWASTRATGIPARFSGSGSGTEFTLTISSLQSEDFAVYYCQQYNIYPWTFGQGTKVEIK
For the molecule B6, the binding result in assay [1] is on record as “binds”; in assay [2], “no binding”; in assay [3], “binds”; in assay [4], “no binding”; in assay [5], “no binding”.

B7: h6E6-055 (antibody, human IgG1, V domains shown)
VH: EVQLVESGGGLVKPGGSLRLSCAASGFTFSQYGHSWVRQAPGKGLEWVSTISSGGGYTHYAESVKGRFTISRDNAKNSLYLQMNSLRAEDTAVYYCARHPRDFSYAQDYWGQGTTVTVSS
VL: EIVMTQSPATLSVSPGERATLSCKASQDVGHYLAWYQQKPGQAPRLLIYWASTRATGIPARFSGSGSGTEFTLTISSLQSEDFAVYYCQQYNIYPWTFGQGTKVEIK
As to B7, the binding entry in assay [1] is “binds”; in assay [2], “no binding”; in assay [3], “binds”; in assay [4], “no binding”.

B8: h6E6-007 (antibody, human IgG1, V domains shown)
VH: EVQLVESGGGLVKPGGSLRLSCAASGFTFSGYGLSWVRQAPGKGLEWVSTISSGGGYTHYAPSVKGRFTISRDNAKNSLYLQMNSLRAEDTAVYYCARHPRDFSYAQDYWGQGTTVTVSS
VL: EIVMTQSPATLSVSPGERATLSCKASQDVGHYVAWYQQKPGQAPRLLIYWASTRATGIPARFSGSGSGTEFTLTISSLQSEDFAVYYCQQYNIYPWTFGQGTKVEIK
As to B8, the binding result in assay [1] was “binds”; in assay [2], “no binding”; in assay [3] it was “binds”; in assay [4], “no binding”.

B9: h6E6-029 (antibody, human IgG1, V domains shown)
VH: EVQLVESGGGLVKPGGSLRLSCAASGFTFSHYGVSWVRQAPGKGLEWVSTISSGGGYTHYAQSVKGRFTISRDNAKNSLYLQMNSLRAEDTAVYYCARHPRDFSYAQDYWGQGTTVTVSS
VL: EIVMTQSPATLSVSPGERATLSCKASQDVGHYVAWYQQKPGQAPRLLIYWASTRHTGIPARFSGSGSGTEFTLTISSLQSEDFAVYYCQQYNIYPWTFGQGTKVEIK
In the case of B9, the binding entry in assay [1] is listed as “binds”; in assay [2], “no binding”; in assay [3], “binds”; in assay [4], “no binding”.

B10: h6E6-068 (antibody, human IgG1, V domains shown)
VH: EVQLVESGGGLVKPGGSLRLSCAASGFTFSSYGISWVRQAPGKGLEWVSTISSGGGYTHYAHSVKGRFTISRDNAKNSLYLQMNSLRAEDTAVYYCARHPRDFSYALDYWGQGTTVTVSS
VL: EIVMTQSPATLSVSPGERATLSCKASQDVGHYLAWYQQKPGQAPRLLIYWASTRATGIPARFSGSGSGTEFTLTISSLQSEDFAVYYCQQYNIYPWTFGQGTKVEIK
With B10, the binding result in assay [1] was “binds”; in assay [2], “no binding”; in assay [3] it was “binds”; in assay [4], “no binding”.

B11: h6E6-057 (antibody, human IgG1, V domains shown)
VH: EVQLVESGGGLVKPGGSLRLSCAASGFTFSHYGVSWVRQAPGKGLEWVSTISSGGGYTHYVASVKGRFTISRDNAKNSLYLQMNSLRAEDTAVYYCARHPRDFSYALDYWGQGTTVTVSS
VL: EIVMTQSPATLSVSPGERATLSCKASQDVGHYVAWYQQKPGQAPRLLIYWASTRATGIPARFSGSGSGTEFTLTISSLQSEDFAVYYCQQYNIYPWAFGQGTKVEIK
As for B11, the binding entry in assay [1] is “binds”; in assay [2], “no binding”; in assay [3], “binds”; in assay [4] it was “no binding”.

B12: h6E6-072 (antibody, human IgG1, V domains shown)
VH: EVQLVESGGGLVKPGGSLRLSCAASGFTFSQYGHSWVRQAPGKGLEWVSTISSGGGYTHYADSVKGRFTISRDNAKNSLYLQMNSLRAEDTAVYYCARHPRDFSYAQDYWGQGTTVTVSS
VL: EIVMTQSPATLSVSPGERATLSCKASQDVGHYLAWYQQKPGQAPRLLIYWASTRHTGIPARFSGSGSGTEFTLTISSLQSEDFAVYYCQQYNIYPWTFGQGTKVEIK
For B12, the binding entry in assay [1] is listed as “binds”; in assay [2], “no binding”; in assay [3] it was “binds”; in assay [4], “no binding”.

B13: h6E6-040 (antibody, human IgG1, V domains shown)
VH: EVQLVESGGGLVKPGGSLRLSCAASGFTFSSYGHSWVRQAPGKGLEWVSTISSGGGYTHYAPSVKGRFTISRDNAKNSLYLQMNSLRAEDTAVYYCARHPRDFSYAHDYWGQGTTVTVSS
VL: EIVMTQSPATLSVSPGERATLSCRASQDVGHYVAWYQQKPGQAPRLLIYWASTRATGIPARFSGSGSGTEFTLTISSLQSEDFAVYYCQQYNIYPWTFGQGTKVEIK
Consider B13, for which the binding entry is given as “binds” in assay [1], “no binding” in assay [2], “binds” in assay [3] and “no binding” in assay [4].

B14: h6E6-116 (antibody, human IgG1, V domains shown)
VH: EVQLVESGGGLVKPGGSLRLSCAASGFTFSTYGVSWVRQAPGKGLEWVSTISSGGGYTHYAGSVKGRFTISRDNAKNSLYLQMNSLRAEDTAVYYCARHPRDFSYALDYWGQGTTVTVSS
VL: EIVMTQSPATLSVSPGERATLSCRASQDVGHYLAWYQQKPGQAPRLLIYWASTRATGIPARFSGSGSGTEFTLTISSLQSEDFAVYYCQQYNIYPWTFGQGTKVEIK
For B14, the binding result in assay [1] is “binds”; in assay [2] it was “no binding”; in assay [3], “binds”; in assay [4], “no binding”.

B15: h6E6-077 (antibody, human IgG1, V domains shown)
VH: EVQLVESGGGLVKPGGSLRLSCAASGFTFSHYGTSWVRQAPGKGLEWVSTISSGGGYTHYAPSVKGRFTISRDNAKNSLYLQMNSLRAEDTAVYYCARHPRDFSYAIDYWGQGTTVTVSS
VL: EIVMTQSPATLSVSPGERATLSCKASQDVGHYVAWYQQKPGQAPRLLIYWASTRATGIPARFSGSGSGTEFTLTISSLQSEDFAVYYCQQYNIYPWTFGQGTKVEIK
For the molecule B15, the binding result was “binds” in assay [1]; “no binding” in assay [2]; “binds” in assay [3]; “no binding” in assay [4]; “no binding” in assay [5].
